Assay results published in PMC7243081 (Slas Discovery, 2019).

Protein sequences, listed by entry. Tags and fused reporters are not part of them. Residues count along the entry.
UniProt P18508, 39-466: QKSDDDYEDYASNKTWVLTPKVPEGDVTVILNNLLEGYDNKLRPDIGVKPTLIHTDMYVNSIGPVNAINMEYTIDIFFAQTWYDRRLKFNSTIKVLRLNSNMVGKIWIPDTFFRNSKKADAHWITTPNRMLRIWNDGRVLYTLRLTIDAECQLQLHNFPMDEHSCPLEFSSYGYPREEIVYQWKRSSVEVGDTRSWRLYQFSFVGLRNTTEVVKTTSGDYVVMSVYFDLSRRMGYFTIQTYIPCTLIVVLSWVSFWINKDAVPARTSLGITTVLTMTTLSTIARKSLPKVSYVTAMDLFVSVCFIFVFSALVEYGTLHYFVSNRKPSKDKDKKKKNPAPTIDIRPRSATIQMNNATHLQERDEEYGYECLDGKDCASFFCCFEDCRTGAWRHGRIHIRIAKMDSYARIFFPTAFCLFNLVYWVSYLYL
UniProt P62813, 28-455: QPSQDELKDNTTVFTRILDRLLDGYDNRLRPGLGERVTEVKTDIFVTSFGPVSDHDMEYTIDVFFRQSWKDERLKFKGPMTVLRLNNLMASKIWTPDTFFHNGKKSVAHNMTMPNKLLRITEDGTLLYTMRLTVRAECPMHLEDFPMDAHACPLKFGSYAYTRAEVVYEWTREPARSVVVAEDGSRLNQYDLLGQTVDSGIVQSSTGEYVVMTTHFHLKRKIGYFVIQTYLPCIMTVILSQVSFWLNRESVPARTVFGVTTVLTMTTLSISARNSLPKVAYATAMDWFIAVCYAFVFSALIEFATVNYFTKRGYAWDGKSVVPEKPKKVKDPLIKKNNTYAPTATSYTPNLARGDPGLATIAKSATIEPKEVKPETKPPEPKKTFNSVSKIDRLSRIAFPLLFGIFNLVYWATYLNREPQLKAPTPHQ
UniProt P63138, 25-474 limits assumed: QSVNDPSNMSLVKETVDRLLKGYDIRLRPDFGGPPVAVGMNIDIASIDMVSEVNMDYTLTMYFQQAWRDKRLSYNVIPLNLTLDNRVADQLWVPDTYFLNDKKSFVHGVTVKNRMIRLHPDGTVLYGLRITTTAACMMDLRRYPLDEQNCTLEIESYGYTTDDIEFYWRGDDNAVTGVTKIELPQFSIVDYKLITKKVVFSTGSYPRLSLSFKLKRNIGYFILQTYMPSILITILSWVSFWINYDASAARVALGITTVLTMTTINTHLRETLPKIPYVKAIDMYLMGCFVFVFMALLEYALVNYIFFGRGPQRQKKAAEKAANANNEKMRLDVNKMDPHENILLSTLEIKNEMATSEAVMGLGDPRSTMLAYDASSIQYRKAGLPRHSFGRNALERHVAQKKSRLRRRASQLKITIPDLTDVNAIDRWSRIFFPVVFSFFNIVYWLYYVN

Target: α1, β2, and γ2s subunits of the rat GABAA receptors (HEK-GABA cells) (Rattus norvegicus, UniProt P18508+P62813+P63138)
Assay: QP-DHM blind agonist screen
Format: cell-based
Details: Table 1, dose-response curves of validated hits

## CC(=O)[C@H]1CC[C@H]2[C@@H]3CC[C@H]4C[C@H](O)CC[C@]4(C)[C@H]3C(=O)C[C@]12C [STOCK1N-51728, Alphaxalone]
  Amplitude (%): 60%
  Hill Coefficient: 1.6–1.8
